The supplement of paper PMC8728848
The other results are listed elsewhere or left out.

Legend:
Test in all cases: glycan array binding signal (z-score within array); higher = stronger binding
Settings in all cases: glycan notation: IUPAC condensed, linker removed
[1] = target: Gal3S(b1-4)Glc
Summary of the method: (§1)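 The Consortium for Functional Glycomics database supplied 3228 glycan arrays, of which those lacking an available protein sequence were dropped. The binding signal, a within-array Z-score, was averaged across arrays of the same protein sequence and across linkers. Negative scores can be read as non-binding.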

[2] = target: Gal3S(b1-4)Glc6S
Summary of the method: as §1

[3] = target: Gal3S(b1-4)GlcNAc
Summary of the method: as §1

[4] = target: Gal3S(b1-4)[Fuc(a1-3)]Glc6S
Summary of the method: as §1

[5] = target: Gal3S(b1-4)[Fuc(a1-3)]GlcNAc
Summary of the method: as §1

[6] = target: Gal3S(b1-4)[Fuc(a1-3)]GlcNAc6S
Summary of the method: as §1

[7] = target: Gal3S4S(b1-4)GlcNAc
Summary of the method: as §1

[8] = target: Gal3S6S(b1-4)GlcNAc
Summary of the method: as §1

[9] = target: Gal3S6S(b1-4)GlcNAc6S
Summary of the method: as §1

[10] = target: Gal4S(b1-4)GlcNAc
Summary of the method: as §1

[11] = target: Gal4S6S(b1-4)GlcNAc
Summary of the method: as §1

[12] = target: Gal6P(b1-4)GlcNAc
Summary of the method: as §1

[13] = target: Gal6S(b1-3)GlcNAc
Summary of the method: as §1

[14] = target: Gal6S(b1-3)GlcNAc6S
Summary of the method: as §1

[15] = target: Gal6S(b1-4)Glc
Summary of the method: as §1

[16] = target: Gal6S(b1-4)Glc6S
Summary of the method: as §1

[17] = target: Gal6S(b1-4)GlcNAc
Summary of the method: as §1

[18] = target: Gal6S(b1-4)GlcNAc6S
Summary of the method: as §1

[19] = target: GalNAc(a1-3)Gal
Summary of the method: as §1

[20] = target: GalNAc(a1-3)GalNAc
Summary of the method: as §1

[21] = target: GalNAc(a1-3)GalNAc(b1-3)Gal(a1-4)Gal(b1-4)Glc
Summary of the method: as §1

[22] = target: GalNAc(a1-3)GalNAc(b1-3)Gal(a1-4)Gal(b1-4)GlcNAc
Summary of the method: as §1

[23] = target: GalNAc(b1-3)Gal
Summary of the method: as §1

[24] = target: GalNAc(b1-3)Gal(a1-4)Gal(b1-4)GlcNAc
Summary of the method: as §1

[25] = target: GalNAc(b1-3)Gal(a1-4)Gal(b1-4)GlcNAc(b1-3)Gal(b1-4)Glc
Summary of the method: as §1

[26] = target: GalNAc(b1-3)Gal(a1-6)Gal(b1-4)Glc
Summary of the method: as §1

[27] = target: GalNAc(b1-3)GalNAc
Summary of the method: as §1

[28] = target: GalNAc(b1-3)GlcNAc
Summary of the method: as §1

[29] = target: GalNAc(b1-4)Gal(b1-4)Glc
Summary of the method: as §1

[30] = target: GalNAc(b1-4)GlcNAc
Summary of the method: as §1

[31] = target: GalNAc(b1-4)GlcNAc(b1-2)Man
Summary of the method: as §1

[32] = target: GalNAc(b1-4)GlcNAc(b1-2)Man(a1-3)[GalNAc(b1-4)GlcNAc(b1-2)Man(a1-6)]Man(b1-4)GlcNAc(b1-4)GlcNAc
Summary of the method: as §1

[33] = target: GalNAc(b1-4)GlcNAc(b1-3)GalNAc(b1-4)GlcNAc
Summary of the method: as §1

[34] = target: GalNAc(b1-4)GlcNAc6S
Summary of the method: as §1

[35] = target: GalNAc(b1-6)GalNAc
Summary of the method: as §1

[36] = target: GalNAc3S(b1-4)GlcNAc
Summary of the method: as §1

[37] = target: GalNAc3S(b1-4)GlcNAc3S
Summary of the method: as §1

B1: truncCC1G-10077 (Coprinopsis cinerea) (protein)
chain: MHHHHHHHHPLPSPGPGWVLIQNGGTGKFLCSTPSGDIGTADGPETVYDYSVQWRFIQREYTGVYHVVNRATGAYLRQIGTSMPSIGLAEENDDELKDWWMLETYDNSEIGLASIISRWTGNVLDHYGGVSVQALDNNTENSYRSWAIIPARDWLTSFSLVNGQGGLCLAAQYAREETRLSTTANVNDFHAQWVFRKPSGSSGYTIQNKYNNHYVGGTSARWELVVCCNKYFGIRNTSTQKYLAIEDGQVTFQDQDMTDRKQCWELCSGRATDTSGNDYDLIYMDDDLLEVMIPWVGDKQGDLKHYIEKRATKKPPKDKGGWQLPAAGLIKKPKFNDIRQLLQELIEQWEWDVVNEEREQIQTLVSIDEAEARRLLGRRPHPDIVAAYQRSRSSTLFRIDRQGYFNIAGDRYVNIQGQYGDDSYFHIALPVGVRFGREQIRRFLRDSLDRSTSVTITPTTCKPPSGGPDYNRDPDSDGDNSWIKWTIAVVGTSAIKHSEL
For B1, the “glycan array binding signal (z-score)” value [1] was 0.989, the “glycan array binding signal (z-score)” value [2] was 0.704 and the “glycan array binding signal (z-score)” value [3] was -0.212. The “glycan array binding signal (z-score)” value [4] was 1.19, the “glycan array binding signal (z-score)” value [5] was -0.266 and the “glycan array binding signal (z-score)” value [6] was 0.155. The “glycan array binding signal (z-score)” value [7] was -0.524, the “glycan array binding signal (z-score)” value [8] was 2.48 and the “glycan array binding signal (z-score)” value [9] was 1.37. The “glycan array binding signal (z-score)” value [10] was -0.652, the “glycan array binding signal (z-score)” value [11] was -0.428 and the “glycan array binding signal (z-score)” value [12] was -0.952. The “glycan array binding signal (z-score)” value [13] was -0.707, the “glycan array binding signal (z-score)” value [14] was 0.57 and the “glycan array binding signal (z-score)” value [15] was -0.548. For the same binder, the “glycan array binding signal (z-score)” value [16] was 0.984, the “glycan array binding signal (z-score)” value [17] was -1.15 and the “glycan array binding signal (z-score)” value [18] was 0.286. For the same binder, the “glycan array binding signal (z-score)” value [19] was -0.798, the “glycan array binding signal (z-score)” value [20] was -0.315 and the “glycan array binding signal (z-score)” value [21] was -0.542. The “glycan array binding signal (z-score)” value [22] was -0.634, the “glycan array binding signal (z-score)” value [23] was -0.908 and the “glycan array binding signal (z-score)” value [24] was -0.242. For the same binder, the “glycan array binding signal (z-score)” value [25] was -0.506, the “glycan array binding signal (z-score)” value [26] was -1.01 and the “glycan array binding signal (z-score)” value [27] was -1.5. The “glycan array binding signal (z-score)” value [28] was -1.34, the “glycan array binding signal (z-score)” value [29] was 0.016 and the “glycan array binding signal (z-score)” value [30] was -1.27. The “glycan array binding signal (z-score)” value [31] was -1.05, the “glycan array binding signal (z-score)” value [32] was 1 and the “glycan array binding signal (z-score)” value [33] was -0.33. The “glycan array binding signal (z-score)” value [34] was -0.894, the “glycan array binding signal (z-score)” value [35] was -0.859 and the “glycan array binding signal (z-score)” value [36] was -0.778. For the same binder, the “glycan array binding signal (z-score)” value [37] was -0.736.
